The other results are listed elsewhere or left out.

Amino acid sequences for entries named in this document (tags omitted).
UniProt Q0JBA9, entry or part of it: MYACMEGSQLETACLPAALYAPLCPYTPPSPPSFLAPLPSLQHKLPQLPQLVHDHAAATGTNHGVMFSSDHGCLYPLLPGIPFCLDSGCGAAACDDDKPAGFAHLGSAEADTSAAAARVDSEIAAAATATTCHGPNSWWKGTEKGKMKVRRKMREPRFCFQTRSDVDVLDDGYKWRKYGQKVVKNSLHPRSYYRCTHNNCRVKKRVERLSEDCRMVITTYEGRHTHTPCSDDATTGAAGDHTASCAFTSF

For this test, the target named is OsWRKY34 (Oryza sativa, UniProt Q0JBA9 1-250). The experiment in a line: protein-binding microarray (RPBM); PBS, 2% BSA, 51.3 ng/ul salmon testes DNA, 50 uM zinc acetate, 200 nM TF, 25 C, 1 h; high values mean tight binding. The note with it: protein: recombinant; tags: N-terminal polyhistidine and DsRed monomer fusion (pET32a); label: CyDye5-dUTP incorporated in the synthesized complementary strand; 3' TTTTT single-stranded linker to array surface; dsDNA, one strand shown. The essentials:
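Using Ni–NTA, transcription factors fused N-terminally to polyhistidine and DsRed were purified after expression in E. coli BL21-CodonPlus. These were incubated at 200 nM with a blocked, double-stranded custom Agilent array for 1 h at 25 °C in a buffer containing 50 µM zinc acetate, and the array was washed. The binding signal is per-feature fluorescence intensity (arbitrary units) on an Axon 4000B scanner.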
“ACGCCGACACCGCCGCGCCGCTCCGCCGCCCCTATCACGCCGGAGTCACCTAGTGCAG”: the binding signal was 8150 fluorescence intensity (a.u.). As to “GTCCGCATCGAGCCGCAGATCTTTCTCACCGCCACCGATGCGGAGTCACCTAGTGCAG”, the binding signal is 8140 fluorescence intensity (a.u.). Next, “TACCATTTATTCTATTGTGACTTGATTCATCAACAAATGTCGGAGTCACCTAGTGCAG”: 8490 fluorescence intensity (a.u.); “TTGGTTGTGACATTATTCCATACTTCTTCTAAATGCTATACGGAGTCACCTAGTGCAG”: 8260 fluorescence intensity (a.u.).

As for “TCTGCGGTCTAATCAAATGACTATTCTTGTGTTTTTTTCTCGGAGTCACCTAGTGCAG”, the binding signal was 8230 fluorescence intensity (a.u.).

Regarding “CTGCTAAGCTTATTTATAGGCCTCCACTCACTCATCTCTCCGGAGTCACCTAGTGCAG”, the binding signal is 8910 fluorescence intensity (a.u.).

For the sequence “ATGGTTCGATTATTGGTGGAGTTCTCTCTCGGTTTCTCCGCGGAGTCACCTAGTGCAG”, the binding signal was 10600 fluorescence intensity (a.u.). Next, “ATTCCATTCTGTATTCCTGCAACCGTGTGTGCTTTTTTCCCGGAGTCACCTAGTGCAG”: 10700 fluorescence intensity (a.u.); “CGACAGTTTCCTTTTTCGCGACCACTTCCGATCTCCTAAACGGAGTCACCTAGTGCAG”: 17000 fluorescence intensity (a.u.); “TGCACCATCTCATGCCACTACCATCAGTTGACCATGTGTTCGGAGTCACCTAGTGCAG”: 11100 fluorescence intensity (a.u.). Next, “ATAATCTGTTAATTTCAGTAAGTCTCACCTTATATGCTTCCGGAGTCACCTAGTGCAG”: 8520 fluorescence intensity (a.u.); “TGTTTTTTTTACTCGGCCTCTATACCCAACCGGATACTCACGGAGTCACCTAGTGCAG”: 8980 fluorescence intensity (a.u.). Next, “CTCCAAATGGTCGCGCATACGCCGCTTTTTTCTATAGCTCCGGAGTCACCTAGTGCAG”: 12800 fluorescence intensity (a.u.); “CCGTTTTCATTTTTGGGTTGGGAACATGTTCATGCGAACACGGAGTCACCTAGTGCAG”: 9780 fluorescence intensity (a.u.). For “TGCGCGCCGCTGCCGCCCCGCCCGTTCCATTCCATGATTCCGGAGTCACCTAGTGCAG”, the binding signal was 10900 fluorescence intensity (a.u.). As for “TCCTACGGTCTGCACACCAAGCTTCGACGTGTCCGTGCCACGGAGTCACCTAGTGCAG”, the binding signal is 9020 fluorescence intensity (a.u.).

As for “TGTATTTCTATGGACTCTATACTCTACTTCTAATATTCCTCGGAGTCACCTAGTGCAG”, the binding signal was 11300 fluorescence intensity (a.u.). Next, “GGTATGGAAGGTGGGAGGGTAAAATGGTAATTGTTTTTTACGGAGTCACCTAGTGCAG”: 14800 fluorescence intensity (a.u.); “CTATTTGGCACTCCATGCCCTGCACCACTCACCCTGCCACCGGAGTCACCTAGTGCAG”: 10100 fluorescence intensity (a.u.); “ACATTCGGTAGTGCTACTCACGGTTCATCCCCAGTGTTTTCGGAGTCACCTAGTGCAG”: 10000 fluorescence intensity (a.u.). In the case of “AGCCTTGCGTGTCACCTGCTCGATCAATTTCCTGGCCCAACGGAGTCACCTAGTGCAG” it was 8220 fluorescence intensity (a.u.); in that of “AATTGTTTGGTTGGTAGAATGACGCCTCAATCCGCACCATCGGAGTCACCTAGTGCAG”, 8040 fluorescence intensity (a.u.). In the case of “ACAACCTTATGCCTACATGGCGCATTTTGTTTGTTTGGGTCGGAGTCACCTAGTGCAG” it was 8320 fluorescence intensity (a.u.). Consider “TTTGTTCTAATCATCCTTCGATTGGGTTGGGTTGAGCAATCGGAGTCACCTAGTGCAG”, for which the binding signal was 9490 fluorescence intensity (a.u.).

With “TTATCACTTTATATGTCTTCTACTGGTGAAATATTACATTCGGAGTCACCTAGTGCAG”, the binding signal is 9050 fluorescence intensity (a.u.). In the case of “GACCCATCGTCGCCTCGCCTAATCATCATCCTTTCCGATGCGGAGTCACCTAGTGCAG” it was 10800 fluorescence intensity (a.u.). For the sequence “GTCCTGCCGCTTCAGCTGCTGCTGCTGCTTCTTCTACGCGCGGAGTCACCTAGTGCAG”, the binding signal is 8280 fluorescence intensity (a.u.).

Regarding “GCTCTTATCCCGAGCTCGTGTCACTGGTGGGGTGGGGCCCCGGAGTCACCTAGTGCAG”, the binding signal is 16600 fluorescence intensity (a.u.).

Consider “GTTTTTTTCTAAGCATTGACTTTTAAATCGCTAACTATATCGGAGTCACCTAGTGCAG”, for which the binding signal was 9670 fluorescence intensity (a.u.). In the case of “TTCTCTTCTTACCGTTGGCCACACCATGATAATACGCTGTCGGAGTCACCTAGTGCAG”, the binding signal is 10300 fluorescence intensity (a.u.).

For “GGGCCTTAGTATTATTTTCTTCCAATTTTTTTAACTTCTACGGAGTCACCTAGTGCAG”, the binding signal was 8740 fluorescence intensity (a.u.). Take “GCCCATTGTCTCTGTCCACTTGGCTCGGCCCACTTATAAGCGGAGTCACCTAGTGCAG”: the binding signal was 9170 fluorescence intensity (a.u.).

Consider “CTTCTACTCACTTGTTTTTCACGCGTACACTTTAGGAATTCGGAGTCACCTAGTGCAG”, for which the binding signal was 9750 fluorescence intensity (a.u.). Next, “CGAGAAAATTGTTCCCCGATCGTGCTTATTCAAATCTACGCGGAGTCACCTAGTGCAG”: 8150 fluorescence intensity (a.u.); “ATTCTTTTATCTGCTCTTCCATTTCATGCCATGTTGATATCGGAGTCACCTAGTGCAG”: 11300 fluorescence intensity (a.u.). As for “ATCACGAACAATCGAACAACGTATAAACACATGCTTCTACCGGAGTCACCTAGTGCAG”, the binding signal is 8960 fluorescence intensity (a.u.). In the case of “GGCAAGGGATGTGTGATATGTCTCGTTTGAAGTTTTTTTTCGGAGTCACCTAGTGCAG” it was 11500 fluorescence intensity (a.u.); in that of “CCATCTTCGTCTTGAGACCGTTCGTGCTCTTATGATTTACCGGAGTCACCTAGTGCAG”, 9140 fluorescence intensity (a.u.); in that of “GACTAACAGTTTTATGGGTCTTTTAGGGTGGAGTGGAGCTCGGAGTCACCTAGTGCAG”, 11000 fluorescence intensity (a.u.). Next, “CCCGACTCCGTATGCCTTGCCTGTGCTGCGTTCACCTATGCGGAGTCACCTAGTGCAG”: 8680 fluorescence intensity (a.u.); “CTGTGTAATTGGTTTTTTTTCCTACATTTAATACTCCATACGGAGTCACCTAGTGCAG”: 11900 fluorescence intensity (a.u.); “ACTTGTATGTAAGTTTCACGTAATTTTGAATCGTCAGATCCGGAGTCACCTAGTGCAG”: 9020 fluorescence intensity (a.u.).

(Values after PMC7819943, “Rice protein-binding microarrays: a tool to detect cis-acting elements near promoter regions in rice”.)
